This is one part of the list.
Experiments:
Test in all cases: log2 fold change, soluble protein after heating vs DMSO (PISA); higher = thermal stabilisation; K562 lysate, 10 uM; active = over 0.2 and 3.5 SD of the protein, either way, in both replicates (recomputed)
erlotinib = compound: C#Cc1cccc(Nc2ncnc3cc(OCCOC)c(OCCOC)cc23)c1 [erlotinib]
In short: (§1)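 Thermal stability, expressed as log-two fold change relative to solvent controls, is given from duplicates. Crude K562 extract in PBS pH 7.4 with 1 mM MgCl2, at 1 mg/mL protein, was treated with 10 μM compound for 30 min and heated in aliquots for 3 min across 48°C-58°C. After pooling, adjustment to 0.5% NP-40 at 4°C and centrifugation at 21,000xg for 90 min, supernatant protein was measured by TMTpro 16plex LC-MS/MS with channel sums equalised.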

Protein sequences, listed by entry. Tags and fused reporters are not part of them. Lines headed by an entry give the natural chain unless they say otherwise; changes in a name come on top.
UniProt P18440: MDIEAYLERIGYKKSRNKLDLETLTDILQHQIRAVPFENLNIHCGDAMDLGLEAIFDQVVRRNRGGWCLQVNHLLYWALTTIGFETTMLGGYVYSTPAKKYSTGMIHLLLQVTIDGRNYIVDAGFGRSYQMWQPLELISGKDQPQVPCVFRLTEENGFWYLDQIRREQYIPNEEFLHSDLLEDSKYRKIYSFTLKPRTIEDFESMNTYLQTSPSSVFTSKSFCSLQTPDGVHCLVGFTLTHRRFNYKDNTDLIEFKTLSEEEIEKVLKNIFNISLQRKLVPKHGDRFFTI
UniProt Q13564: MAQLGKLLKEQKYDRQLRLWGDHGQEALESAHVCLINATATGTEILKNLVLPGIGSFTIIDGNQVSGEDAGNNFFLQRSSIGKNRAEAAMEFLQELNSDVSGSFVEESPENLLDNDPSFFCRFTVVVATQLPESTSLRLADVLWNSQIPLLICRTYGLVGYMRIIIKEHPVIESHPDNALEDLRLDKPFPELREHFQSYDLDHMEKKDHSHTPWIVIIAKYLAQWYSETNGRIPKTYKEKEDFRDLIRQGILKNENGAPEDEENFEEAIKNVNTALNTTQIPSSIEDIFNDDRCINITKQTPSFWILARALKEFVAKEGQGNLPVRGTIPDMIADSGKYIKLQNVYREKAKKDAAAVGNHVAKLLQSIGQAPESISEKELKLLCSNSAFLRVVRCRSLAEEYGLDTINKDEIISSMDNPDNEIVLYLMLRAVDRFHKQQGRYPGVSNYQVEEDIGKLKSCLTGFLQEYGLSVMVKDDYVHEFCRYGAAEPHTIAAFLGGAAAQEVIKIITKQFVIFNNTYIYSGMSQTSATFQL
UniProt Q03426, whole entry, looked up: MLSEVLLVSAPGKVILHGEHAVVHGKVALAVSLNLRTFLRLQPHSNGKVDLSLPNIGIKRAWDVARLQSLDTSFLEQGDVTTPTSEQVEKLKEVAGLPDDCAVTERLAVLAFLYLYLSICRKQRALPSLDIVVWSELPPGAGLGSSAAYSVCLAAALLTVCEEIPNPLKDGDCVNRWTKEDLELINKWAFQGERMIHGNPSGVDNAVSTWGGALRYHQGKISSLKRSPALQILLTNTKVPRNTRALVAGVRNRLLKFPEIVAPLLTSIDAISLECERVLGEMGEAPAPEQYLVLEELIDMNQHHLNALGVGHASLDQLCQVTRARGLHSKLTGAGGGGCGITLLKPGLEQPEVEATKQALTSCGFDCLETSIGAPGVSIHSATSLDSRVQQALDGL
UniProt Q5VZE5: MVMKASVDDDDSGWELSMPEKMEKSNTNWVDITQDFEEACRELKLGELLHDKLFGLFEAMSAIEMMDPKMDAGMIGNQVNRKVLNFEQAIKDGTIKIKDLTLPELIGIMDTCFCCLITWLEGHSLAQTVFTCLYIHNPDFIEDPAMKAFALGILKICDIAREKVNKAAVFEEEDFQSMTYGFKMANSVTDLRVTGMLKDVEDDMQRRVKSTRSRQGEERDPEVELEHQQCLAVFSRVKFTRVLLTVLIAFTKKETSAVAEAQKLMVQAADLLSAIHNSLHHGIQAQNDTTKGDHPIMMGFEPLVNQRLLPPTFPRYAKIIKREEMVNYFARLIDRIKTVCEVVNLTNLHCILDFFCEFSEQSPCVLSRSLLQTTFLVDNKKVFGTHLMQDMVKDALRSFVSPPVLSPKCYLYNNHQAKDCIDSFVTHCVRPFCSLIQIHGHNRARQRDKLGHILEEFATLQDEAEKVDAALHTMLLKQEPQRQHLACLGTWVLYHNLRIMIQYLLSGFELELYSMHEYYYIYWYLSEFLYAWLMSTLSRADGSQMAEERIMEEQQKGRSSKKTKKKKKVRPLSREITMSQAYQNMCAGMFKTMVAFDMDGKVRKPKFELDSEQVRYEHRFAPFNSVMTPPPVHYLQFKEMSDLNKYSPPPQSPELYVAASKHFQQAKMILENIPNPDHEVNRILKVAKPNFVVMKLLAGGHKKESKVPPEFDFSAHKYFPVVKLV
UniProt P60660, whole entry, looked up: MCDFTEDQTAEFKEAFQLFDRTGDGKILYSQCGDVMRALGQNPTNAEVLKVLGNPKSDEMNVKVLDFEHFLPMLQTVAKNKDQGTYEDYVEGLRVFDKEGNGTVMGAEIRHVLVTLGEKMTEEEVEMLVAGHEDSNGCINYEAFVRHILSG
UniProt Q9BQG0: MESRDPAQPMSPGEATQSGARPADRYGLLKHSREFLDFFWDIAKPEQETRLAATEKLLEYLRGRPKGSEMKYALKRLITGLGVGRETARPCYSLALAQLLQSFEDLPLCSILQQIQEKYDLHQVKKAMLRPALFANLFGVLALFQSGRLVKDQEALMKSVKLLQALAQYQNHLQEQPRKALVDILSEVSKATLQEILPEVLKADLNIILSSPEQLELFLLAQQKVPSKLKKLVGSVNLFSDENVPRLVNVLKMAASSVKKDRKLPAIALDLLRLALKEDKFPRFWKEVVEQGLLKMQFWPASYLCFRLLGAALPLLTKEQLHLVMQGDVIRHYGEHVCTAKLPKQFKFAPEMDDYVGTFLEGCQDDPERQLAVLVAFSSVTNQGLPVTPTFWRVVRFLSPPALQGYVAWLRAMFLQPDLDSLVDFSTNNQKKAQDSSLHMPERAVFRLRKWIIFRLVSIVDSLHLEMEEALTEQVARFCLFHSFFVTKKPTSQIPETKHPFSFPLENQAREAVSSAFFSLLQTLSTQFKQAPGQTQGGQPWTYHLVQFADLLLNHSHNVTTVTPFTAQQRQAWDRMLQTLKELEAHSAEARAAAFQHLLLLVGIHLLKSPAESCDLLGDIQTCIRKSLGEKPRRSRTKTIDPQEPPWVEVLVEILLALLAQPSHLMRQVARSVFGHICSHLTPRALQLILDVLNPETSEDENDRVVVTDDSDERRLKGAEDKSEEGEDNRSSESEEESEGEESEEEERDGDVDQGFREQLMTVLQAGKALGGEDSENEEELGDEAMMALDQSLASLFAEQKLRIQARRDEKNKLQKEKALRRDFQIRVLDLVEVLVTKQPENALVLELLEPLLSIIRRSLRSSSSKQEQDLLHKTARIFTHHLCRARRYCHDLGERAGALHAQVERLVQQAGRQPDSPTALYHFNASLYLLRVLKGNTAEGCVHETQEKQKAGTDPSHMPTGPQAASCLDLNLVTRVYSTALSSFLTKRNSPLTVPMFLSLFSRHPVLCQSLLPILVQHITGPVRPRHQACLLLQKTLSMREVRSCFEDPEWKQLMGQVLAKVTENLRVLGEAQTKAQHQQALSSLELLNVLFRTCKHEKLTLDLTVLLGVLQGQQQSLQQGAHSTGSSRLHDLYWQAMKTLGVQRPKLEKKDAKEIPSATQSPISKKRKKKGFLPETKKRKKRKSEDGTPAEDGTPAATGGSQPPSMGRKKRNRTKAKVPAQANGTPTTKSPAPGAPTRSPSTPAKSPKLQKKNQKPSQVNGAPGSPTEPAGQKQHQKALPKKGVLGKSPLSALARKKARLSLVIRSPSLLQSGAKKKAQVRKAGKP
UniProt P41227: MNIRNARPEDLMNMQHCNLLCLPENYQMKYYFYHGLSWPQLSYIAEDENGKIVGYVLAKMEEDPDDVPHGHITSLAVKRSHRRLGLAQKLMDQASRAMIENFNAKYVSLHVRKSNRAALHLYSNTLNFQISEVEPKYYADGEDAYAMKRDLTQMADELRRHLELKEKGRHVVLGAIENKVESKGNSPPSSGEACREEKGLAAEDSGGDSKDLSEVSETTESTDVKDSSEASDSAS
UniProt O14950, whole entry, looked up: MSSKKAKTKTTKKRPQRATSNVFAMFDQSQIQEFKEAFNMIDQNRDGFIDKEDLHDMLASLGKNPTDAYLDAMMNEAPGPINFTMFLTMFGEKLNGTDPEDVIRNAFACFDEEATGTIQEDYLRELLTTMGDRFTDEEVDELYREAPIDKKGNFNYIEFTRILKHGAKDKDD
UniProt Q53F19: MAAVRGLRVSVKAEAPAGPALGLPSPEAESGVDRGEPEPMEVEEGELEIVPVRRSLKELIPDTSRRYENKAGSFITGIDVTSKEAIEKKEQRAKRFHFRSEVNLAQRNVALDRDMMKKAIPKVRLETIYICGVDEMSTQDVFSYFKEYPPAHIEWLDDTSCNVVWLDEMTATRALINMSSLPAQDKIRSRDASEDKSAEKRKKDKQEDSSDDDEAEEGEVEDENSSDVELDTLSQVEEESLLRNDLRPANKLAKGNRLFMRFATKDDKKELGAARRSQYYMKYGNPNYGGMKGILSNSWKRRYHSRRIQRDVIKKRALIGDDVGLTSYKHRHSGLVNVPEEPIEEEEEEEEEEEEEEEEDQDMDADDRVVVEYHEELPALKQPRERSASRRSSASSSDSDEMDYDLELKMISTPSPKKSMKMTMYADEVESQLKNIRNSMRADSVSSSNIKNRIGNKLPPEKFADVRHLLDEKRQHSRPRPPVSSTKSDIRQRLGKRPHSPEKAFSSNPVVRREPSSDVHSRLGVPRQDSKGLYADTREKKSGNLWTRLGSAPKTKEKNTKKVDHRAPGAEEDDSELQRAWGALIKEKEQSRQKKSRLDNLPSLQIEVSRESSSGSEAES
UniProt E9PAV3, whole entry, looked up: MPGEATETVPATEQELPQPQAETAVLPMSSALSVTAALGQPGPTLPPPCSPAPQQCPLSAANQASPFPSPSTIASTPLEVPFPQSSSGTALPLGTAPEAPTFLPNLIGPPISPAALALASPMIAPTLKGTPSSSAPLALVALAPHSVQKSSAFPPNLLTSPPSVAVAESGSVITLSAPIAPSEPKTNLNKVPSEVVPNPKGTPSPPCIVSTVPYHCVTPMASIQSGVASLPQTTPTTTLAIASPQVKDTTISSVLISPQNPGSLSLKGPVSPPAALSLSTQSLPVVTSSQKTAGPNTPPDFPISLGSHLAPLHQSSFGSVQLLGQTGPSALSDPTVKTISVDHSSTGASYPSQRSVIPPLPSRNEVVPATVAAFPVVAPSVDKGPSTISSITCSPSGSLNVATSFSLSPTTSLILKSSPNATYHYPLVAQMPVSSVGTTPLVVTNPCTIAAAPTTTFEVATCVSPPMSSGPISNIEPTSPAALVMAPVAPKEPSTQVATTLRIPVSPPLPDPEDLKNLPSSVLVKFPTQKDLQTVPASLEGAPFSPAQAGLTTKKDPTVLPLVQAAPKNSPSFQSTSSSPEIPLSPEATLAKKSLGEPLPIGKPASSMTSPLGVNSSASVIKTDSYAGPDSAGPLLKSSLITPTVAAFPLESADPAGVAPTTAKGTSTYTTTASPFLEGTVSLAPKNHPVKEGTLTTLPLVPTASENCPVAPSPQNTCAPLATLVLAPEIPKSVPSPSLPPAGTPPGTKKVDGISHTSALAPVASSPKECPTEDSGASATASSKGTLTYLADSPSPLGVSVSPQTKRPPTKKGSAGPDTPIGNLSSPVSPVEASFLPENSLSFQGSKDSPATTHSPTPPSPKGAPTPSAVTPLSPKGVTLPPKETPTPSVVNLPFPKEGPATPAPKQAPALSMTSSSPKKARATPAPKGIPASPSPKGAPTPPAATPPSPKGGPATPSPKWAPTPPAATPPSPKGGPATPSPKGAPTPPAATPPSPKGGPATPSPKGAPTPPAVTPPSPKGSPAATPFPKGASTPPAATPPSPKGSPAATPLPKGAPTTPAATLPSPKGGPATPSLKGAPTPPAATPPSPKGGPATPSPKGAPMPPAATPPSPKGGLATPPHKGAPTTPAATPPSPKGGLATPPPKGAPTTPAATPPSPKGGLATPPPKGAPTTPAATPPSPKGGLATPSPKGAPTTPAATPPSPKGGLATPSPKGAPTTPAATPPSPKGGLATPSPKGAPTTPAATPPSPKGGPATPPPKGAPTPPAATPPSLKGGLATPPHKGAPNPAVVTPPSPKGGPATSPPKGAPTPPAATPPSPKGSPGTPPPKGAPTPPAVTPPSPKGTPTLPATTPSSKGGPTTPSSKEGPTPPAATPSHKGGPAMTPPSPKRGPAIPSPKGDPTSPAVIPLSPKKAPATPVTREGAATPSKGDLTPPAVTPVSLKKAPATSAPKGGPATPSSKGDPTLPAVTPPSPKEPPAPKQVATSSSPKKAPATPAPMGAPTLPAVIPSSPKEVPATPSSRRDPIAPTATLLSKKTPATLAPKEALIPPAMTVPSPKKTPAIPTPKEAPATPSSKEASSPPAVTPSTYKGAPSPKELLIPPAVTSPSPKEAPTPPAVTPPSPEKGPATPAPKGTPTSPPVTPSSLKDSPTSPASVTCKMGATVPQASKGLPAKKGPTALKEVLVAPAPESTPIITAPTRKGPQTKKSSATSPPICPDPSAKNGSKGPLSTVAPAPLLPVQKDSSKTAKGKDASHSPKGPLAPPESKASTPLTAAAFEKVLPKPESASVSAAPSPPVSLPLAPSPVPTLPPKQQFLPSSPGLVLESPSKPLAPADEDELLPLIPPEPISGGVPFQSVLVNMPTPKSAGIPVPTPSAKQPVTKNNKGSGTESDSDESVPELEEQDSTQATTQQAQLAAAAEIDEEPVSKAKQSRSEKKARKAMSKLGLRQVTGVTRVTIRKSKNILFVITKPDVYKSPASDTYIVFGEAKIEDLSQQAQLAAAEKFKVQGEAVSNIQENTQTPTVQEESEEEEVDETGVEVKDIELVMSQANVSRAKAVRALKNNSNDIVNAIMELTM

[1] = compound: C/C(=N\NC(=O)C1=CC(=CC=C1)S(=O)(=O)N2CCOCC2)/C3=C(C=CC(=C3)Cl)O
In short: as §1

[2] = compound: C1=CC(=CC=C1C2=NC3=C(N2)C=C(C=C3)C(=O)N)OC4=CC=C(C=C4)Cl
In short: as §1

[3] = compound: C1=CC2=C(C=CC(=C2)/C=C\3/C(=O)NC(=NCC4=CC=CS4)S3)N=C1
In short: as §1

[4] = compound: C1=CC2=NC=CN=C2C=C1/C=C/3\C(=O)NC(=O)S3
In short: as §1

[5] = compound: C1=CC=C(C=C1)C2=NC(=C(N2)C3=CC=NC=C3)C4=CC(=C(C=C4)Cl)O
In short: as §1

[6] = compound: C1=CC=C2C(=C1)C3=NNC4=CC=CC(=C43)C2=O
In short: as §1

[7] = compound: C1CCN(C1)C(=O)NC2=CC=CC(=C2)NC3=NC=C(C(=N3)NCCC4=CN=CN4)Br
In short: as §1

[8] = compound: C1CN(CCC1(CC2=CC=C(C=C2)Cl)N)C3=NC=NC4=C3C=CN4
In short: as §1

IRAK-1-4 Inhibitor I = compound: C1COCCN1CCN2C3=CC=CC=C3N=C2NC(=O)C4=CC(=CC=C4)[N+](=O)[O-] [IRAK-1-4 Inhibitor I]
In short: as §1

Row | Target | log2 fold change (erlotinib) | log2 fold change [1] | log2 fold change [2] | log2 fold change [3] | log2 fold change [4] | log2 fold change [5] | log2 fold change [6] | log2 fold change [7] | log2 fold change [8] | log2 fold change (IRAK-1-4 Inhibitor I)
1 | NATD1 (UniProt Q8N6N6) | inactive: 0.004 | inactive: -0.207 | inactive: 0.026 | inactive: -0.206 | inactive: -0.061 | inactive: 0.008 | inactive: 0.337 | inactive: -0.005 | inactive: 0.106 | inactive: 0.055
2 | NAT1 (UniProt P18440) | inactive: 0.001 | inactive: -0.011 | inactive: -0.007 | inactive: -0.136 | inactive: -0.015 | inactive: -0.011 | active: 0.528 | inactive: -0.021 | inactive: 0.035 | inactive: -0.013
3 | MYO18A (UniProt Q92614) | inactive: -0.023 | inactive: -0.025 | inactive: 0.019 | inactive: -0.016 | inactive: -0.015 | inactive: 0.004 | inactive: -0.018 | inactive: -0.023 | inactive: 0.024 | inactive: -0.021
4 | NAE1 (UniProt Q13564) | inactive: -0.005 | inactive: -0.006 | inactive: 0.02 | inactive: -0.019 | inactive: -0.004 | inactive: 0.013 | inactive: -0.008 | inactive: -0.004 | inactive: -0.006 | inactive: 0.01
5 | NCOR2 (UniProt C9J0Q5) | inactive: 0.044 | inactive: 0.033 | inactive: 0.04 | inactive: -0.082 | inactive: -0.008 | inactive: 0.054 | inactive: -0.173 | inactive: -0.002 | inactive: 0.049 | inactive: 0.032
6 | MVK (UniProt Q03426) | inactive: -0.012 | inactive: -0.082 | inactive: 0.009 | inactive: -0.008 | inactive: -0.017 | inactive: -0.02 | inactive: -0.01 | inactive: -0.001 | inactive: 0.013 | inactive: 0.009
7 | NAA50 (UniProt Q9GZZ1) | inactive: 0.024 | inactive: 0.042 | inactive: 0.004 | inactive: 0.007 | inactive: -0.004 | inactive: 0.005 | inactive: 0.009 | inactive: 0.015 | inactive: 0.023 | inactive: 0.011
8 | MZT2A (UniProt Q6P582) | inactive: -0.082 | inactive: -0.037 | inactive: -0.098 | inactive: 0.018 | inactive: -0.058 | inactive: -0.045 | inactive: -0.073 | inactive: 0.052 | inactive: 0.015 | inactive: -0.031
9 | NCK2 (UniProt O43639) | inactive: -0.007 | inactive: 0.023 | inactive: 0.014 | inactive: -0.027 | inactive: -0.084 | inactive: 0.005 | inactive: -0.043 | inactive: -0.075 | inactive: -0.026 | inactive: -0.015
10 | MYO19 (UniProt Q96H55) | inactive: -0.054 | inactive: -0.138 | inactive: -0.025 | inactive: 0.041 | inactive: 0.072 | inactive: -0.035 | inactive: 0.044 | inactive: 0.006 | inactive: -0.013 | inactive: 0.012
11 | NAA35 (UniProt Q5VZE5) | inactive: 0.017 | inactive: 0.054 | inactive: -0.023 | inactive: 0.115 | inactive: 0.021 | inactive: 0.01 | inactive: -0.002 | inactive: -0.026 | inactive: -0.025 | inactive: 0.013
12 | MYL6 (UniProt P60660) | inactive: 0 | inactive: 0.013 | inactive: 0.001 | inactive: 0.044 | inactive: -0.05 | inactive: -0.015 | inactive: -0.003 | inactive: 0.044 | inactive: 0.023 | inactive: 0.02
13 | NBAS (UniProt A2RRP1) | inactive: 0.026 | inactive: -0.01 | inactive: 0.042 | inactive: -0.072 | inactive: 0.019 | inactive: -0.058 | inactive: 0.045 | inactive: -0.004 | inactive: -0.046 | inactive: 0.093
14 | NAP1L4 isoform 2 (UniProt Q99733) | inactive: -0.012 | inactive: -0.02 | inactive: -0.01 | inactive: -0.005 | inactive: 0.016 | inactive: -0.018 | inactive: 0.001 | inactive: 0.023 | inactive: -0.022 | inactive: 0.011
15 | MZT2B (UniProt Q6NZ67) | inactive: -0.022 | inactive: -0.409 | inactive: 0.029 | inactive: -0.008 | inactive: -0.035 | inactive: 0.044 | inactive: 0.017 | inactive: -0.007 | inactive: 0.104 | inactive: -0.04
16 | NCBP2 (UniProt P52298) | inactive: -0.006 | inactive: 0.052 | inactive: 0.034 | inactive: 0.017 | inactive: 0.003 | inactive: -0.019 | inactive: -0.002 | inactive: 0 | inactive: 0.018 | inactive: -0.011
17 | MYBBP1A isoform 2 (UniProt Q9BQG0) | inactive: 0.029 | inactive: -0.021 | inactive: -0.062 | inactive: 0.02 | inactive: -0.011 | inactive: 0.022 | inactive: 0.011 | inactive: 0.001 | inactive: 0.045 | inactive: -0.008
18 | NAA10 (UniProt P41227) | inactive: 0.022 | inactive: 0.02 | inactive: 0.01 | inactive: -0.007 | inactive: 0.013 | inactive: -0.019 | inactive: -0.002 | inactive: 0.037 | inactive: 0.018 | inactive: 0.004
19 | MYSM1 (UniProt Q5VVJ2) | inactive: 0.039 | inactive: -0.043 | inactive: -0.018 | inactive: 0.031 | inactive: -0.025 | inactive: -0.017 | inactive: -0.026 | inactive: -0.047 | inactive: 0.009 | inactive: -0.052
20 | NADK2 (UniProt Q4G0N4) | inactive: 0.005 | inactive: -0.024 | inactive: 0.011 | inactive: 0.104 | inactive: -0.026 | inactive: -0.003 | inactive: -0.017 | inactive: -0.019 | inactive: 0.031 | inactive: 0.025
21 | MUL1 (UniProt Q969V5) | inactive: -0.059 | inactive: -0.012 | inactive: 0.03 | inactive: 0.042 | inactive: 0.054 | inactive: 0.009 | inactive: -0.039 | inactive: -0.007 | inactive: 0.02 | inactive: 0.003
22 | MYL12B (UniProt O14950) | inactive: -0.027 | inactive: -0.081 | inactive: 0.008 | inactive: 0.013 | inactive: 0.019 | inactive: 0.021 | inactive: 0.002 | inactive: 0.012 | inactive: 0.031 | inactive: -0.004
23 | NCAPD2 (UniProt Q15021) | inactive: 0.011 | inactive: 0.011 | inactive: -0.005 | inactive: 0.032 | inactive: -0.009 | inactive: -0.016 | inactive: -0.025 | inactive: -0.007 | inactive: -0.005 | inactive: -0.001
24 | MVB12A (UniProt Q96EY5) | inactive: 0.027 | inactive: -0.049 | inactive: 0.022 | inactive: -0.001 | inactive: -0.024 | inactive: -0.001 | inactive: -0.046 | inactive: -0.089 | inactive: -0.003 | inactive: -0.001
25 | NBR1 (UniProt Q14596) | inactive: 0.065 | inactive: -0.142 | inactive: 0.059 | inactive: 0.285 | inactive: -0.121 | inactive: 0.012 | inactive: 0.073 | inactive: 0.143 | inactive: -0.048 | inactive: -0.073
26 | NCBP3 (UniProt Q53F19) | inactive: 0.073 | inactive: -0.096 | inactive: 0.004 | inactive: 0.099 | inactive: 0.005 | inactive: 0.022 | inactive: 0.014 | inactive: -0.001 | inactive: -0.111 | inactive: 0.059
27 | NAA15, A0A0B4J1W3 | inactive: -0.065 | inactive: 0.029 | inactive: 0.007 | inactive: 0 | inactive: -0.002 | inactive: -0.062 | inactive: 0.043 | inactive: -0.034 | inactive: 0 | inactive: 0.054
28 | NCKIPSD (UniProt Q9NZQ3) | inactive: -0.027 | inactive: 0.104 | inactive: -0.006 | inactive: -0.072 | inactive: 0.033 | inactive: -0.065 | inactive: 0.023 | inactive: -0.008 | inactive: 0.002 | inactive: -0.001
29 | NCL (UniProt P19338) | inactive: -0.011 | inactive: -0.005 | inactive: -0.029 | inactive: -0.001 | inactive: -0.011 | inactive: 0.003 | inactive: 0.036 | inactive: 0.032 | inactive: -0.008 | inactive: -0.021
30 | NACA (UniProt E9PAV3) | inactive: -0.011 | inactive: -0.144 | inactive: 0.066 | inactive: -0.016 | inactive: -0.049 | inactive: 0 | inactive: -0.002 | inactive: -0.035 | inactive: 0.007 | inactive: 0.01

Retrieved one by one from the entries so far, 2 records:
Row | Target | log2 fold change (erlotinib) | log2 fold change [1] | log2 fold change [2] | log2 fold change [3] | log2 fold change [4] | log2 fold change [5] | log2 fold change [6] | log2 fold change [7] | log2 fold change [8] | log2 fold change (IRAK-1-4 Inhibitor I)
12 | MYL6 (UniProt P60660) | inactive: 0 | inactive: 0.013 | inactive: 0.001 | inactive: 0.044 | inactive: -0.05 | inactive: -0.015 | inactive: -0.003 | inactive: 0.044 | inactive: 0.023 | inactive: 0.02
5 | NCOR2 (UniProt C9J0Q5) | inactive: 0.044 | inactive: 0.033 | inactive: 0.04 | inactive: -0.082 | inactive: -0.008 | inactive: 0.054 | inactive: -0.173 | inactive: -0.002 | inactive: 0.049 | inactive: 0.032

— the supplement of paper PMC10849652
